{"source": "the supplement of paper PMC8728848", "binders": {"B1": {"name": "MLTim-4 (Mus musculus), Q6U7R4 (protein)", "chain": "MSKGLLLLWLVTELWWLYLTPAASEDTIIGFLGQPVTLPCHYLSWSQSRNSMCWGKGSCPNSKCNAELLRTDGTRIISRKSTKYTLLGKVQFGEVSLTISNTNRGDSGVYCCRIEVPGWFNDVKKNVRLELRRAT"}}, "assay_in_all_cases": "glycan array binding signal (z-score within array); higher = stronger binding", "conditions_in_all_cases": "glycan notation: IUPAC condensed, linker removed", "key": {"[1]": {"target": "GlcNAc(b1-6)Gal(b1-4)GlcNAc", "procedure,_shortened": "(§1)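 Glycan array data were curated from 3228 arrays in the Consortium for Functional Glycomics database and kept only where the protein sequence was available. Glycan names were converted to IUPAC-condensed notation, and columns mapping to the same glycan were averaged. The binding signal is a within-array Z-score, averaged across arrays of the same protein sequence at different concentrations or buffers and across linkers. Negative Z-scores can be read as non-binding.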"}, "GlcNAc(b1-6)GalNAc": {"target": "GlcNAc(b1-6)GalNAc", "procedure,_shortened": "as §1"}, "Kdn(a2-3)Gal(b1-3)GlcNAc": {"target": "Kdn(a2-3)Gal(b1-3)GlcNAc", "procedure,_shortened": "as §1"}, "Kdn(a2-3)Gal(b1-4)GlcNAc": {"target": "Kdn(a2-3)Gal(b1-4)GlcNAc", "procedure,_shortened": "as §1"}, "[2]": {"target": "Man(a1-2)Man(a1-2)Man(a1-3)Man", "procedure,_shortened": "as §1"}, "[3]": {"target": "Man(a1-2)Man(a1-2)Man(a1-3)[Man(a1-2)Man(a1-3)[Man(a1-2)Man(a1-6)]Man(a1-6)]Man(b1-4)GlcNAc(b1-4)GlcNAc", "procedure,_shortened": "as §1"}, "[4]": {"target": "Man(a1-2)Man(a1-2)Man(a1-3)[Man(a1-2)Man(a1-6)[Man(a1-3)]Man(a1-6)]Man(b1-4)GlcNAc(b1-4)GlcNAc", "procedure,_shortened": "as §1"}, "[5]": {"target": "Man(a1-2)Man(a1-2)Man(a1-6)[Man(a1-3)]Man", "procedure,_shortened": "as §1"}, "Man(a1-2)Man(a1-3)Man": {"target": "Man(a1-2)Man(a1-3)Man", "procedure,_shortened": "as §1"}, "[6]": {"target": "Man(a1-2)Man(a1-3)[Man(a1-2)Man(a1-6)]Man", "procedure,_shortened": "as §1"}, "[7]": {"target": "Man(a1-2)Man(a1-3)[Man(a1-3)[Man(a1-6)]Man(a1-6)]Man(b1-4)GlcNAc(b1-4)GlcNAc", "procedure,_shortened": "as §1"}, "[8]": {"target": "Man(a1-2)Man(a1-3)[Man(a1-6)]Man(a1-6)[Man(a1-2)Man(a1-3)]Man(b1-4)GlcNAc(b1-4)GlcNAc", "procedure,_shortened": "as §1"}, "Man(a1-3)[Man(a1-6)]Man": {"target": "Man(a1-3)[Man(a1-6)]Man", "procedure,_shortened": "as §1"}, "[9]": {"target": "Man(a1-3)[Man(a1-6)]Man(a1-6)[Man(a1-3)]Man(b1-4)GlcNAc(b1-4)GlcNAc", "procedure,_shortened": "as §1"}, "[10]": {"target": "Man(a1-3)[Man(a1-6)]Man(b1-4)GlcNAc(b1-4)GlcNAc", "procedure,_shortened": "as §1"}, "Man(b1-4)GlcNAc": {"target": "Man(b1-4)GlcNAc", "procedure,_shortened": "as §1"}, "Neu5Ac(a2-3)Gal": {"target": "Neu5Ac(a2-3)Gal", "procedure,_shortened": "as §1"}, "[11]": {"target": "Neu5Ac(a2-3)Gal(b1-3)GalNAc", "procedure,_shortened": "as §1"}, "[12]": {"target": "Neu5Ac(a2-3)Gal(b1-3)GalNAc(b1-3)Gal(a1-4)Gal(b1-4)Glc", "procedure,_shortened": "as §1"}, "[13]": {"target": "Neu5Ac(a2-3)Gal(b1-3)GalNAc(b1-4)[Neu5Ac(a2-3)]Gal(b1-4)Glc", "procedure,_shortened": "as §1"}, "[14]": {"target": "Neu5Ac(a2-3)Gal(b1-3)GalNAc6S", "procedure,_shortened": "as §1"}, "[15]": {"target": "Neu5Ac(a2-3)Gal(b1-3)GlcNAc", "procedure,_shortened": "as §1"}, "[16]": {"target": "Neu5Ac(a2-3)Gal(b1-3)GlcNAc(b1-3)Gal(b1-3)GlcNAc", "procedure,_shortened": "as §1"}, "[17]": {"target": "Neu5Ac(a2-3)Gal(b1-3)GlcNAc(b1-3)Gal(b1-4)GlcNAc", "procedure,_shortened": "as §1"}, "[18]": {"target": "Neu5Ac(a2-3)Gal(b1-3)GlcNAc6S", "procedure,_shortened": "as §1"}, "[19]": {"target": "Neu5Ac(a2-3)Gal(b1-3)[Fuc(a1-4)]GlcNAc", "procedure,_shortened": "as §1"}, "[20]": {"target": "Neu5Ac(a2-3)Gal(b1-3)[Fuc(a1-4)]GlcNAc(b1-3)Gal(b1-4)[Fuc(a1-3)]GlcNAc", "procedure,_shortened": "as §1"}, "[21]": {"target": "Neu5Ac(a2-3)Gal(b1-3)[Neu5Ac(a2-3)Gal(b1-4)]GlcNAc", "procedure,_shortened": "as §1"}, "[22]": {"target": "Neu5Ac(a2-3)Gal(b1-3)[Neu5Ac(a2-6)]GalNAc", "procedure,_shortened": "as §1"}, "Neu5Ac(a2-3)Gal(b1-4)Glc": {"target": "Neu5Ac(a2-3)Gal(b1-4)Glc", "procedure,_shortened": "as §1"}, "[23]": {"target": "Neu5Ac(a2-3)Gal(b1-4)GlcNAc", "procedure,_shortened": "as §1"}, "[24]": {"target": "Neu5Ac(a2-3)Gal(b1-4)GlcNAc(b1-3)Gal(b1-3)GlcNAc", "procedure,_shortened": "as §1"}, "[25]": {"target": "Neu5Ac(a2-3)Gal(b1-4)GlcNAc(b1-3)Gal(b1-4)GlcNAc", "procedure,_shortened": "as §1"}, "[26]": {"target": "Neu5Ac(a2-3)Gal(b1-4)GlcNAc(b1-3)Gal(b1-4)GlcNAc(b1-3)Gal(b1-4)GlcNAc", "procedure,_shortened": "as §1"}, "[27]": {"target": "Neu5Ac(a2-3)Gal(b1-4)GlcNAc(b1-3)Gal(b1-4)[Fuc(a1-3)]GlcNAc", "procedure,_shortened": "as §1"}, "[28]": {"target": "Neu5Ac(a2-3)Gal(b1-4)GlcNAc(b1-6)[Gal(b1-3)]GalNAc", "procedure,_shortened": "as §1"}, "[29]": {"target": "Neu5Ac(a2-3)Gal(b1-4)GlcNAc6S", "procedure,_shortened": "as §1"}, "[30]": {"target": "Neu5Ac(a2-3)Gal(b1-4)[Fuc(a1-3)]GlcNAc", "procedure,_shortened": "as §1"}, "[31]": {"target": "Neu5Ac(a2-3)Gal(b1-4)[Fuc(a1-3)]GlcNAc(b1-3)Gal", "procedure,_shortened": "as §1"}, "[32]": {"target": "Neu5Ac(a2-3)Gal(b1-4)[Fuc(a1-3)]GlcNAc(b1-3)Gal(b1-4)GlcNAc", "procedure,_shortened": "as §1"}, "[33]": {"target": "Neu5Ac(a2-3)Gal(b1-4)[Fuc(a1-3)]GlcNAc(b1-3)Gal(b1-4)[Fuc(a1-3)]GlcNAc(b1-3)Gal(b1-4)[Fuc(a1-3)]GlcNAc", "procedure,_shortened": "as §1"}, "[34]": {"target": "Neu5Ac(a2-3)Gal(b1-4)[Fuc(a1-3)]GlcNAc6S", "procedure,_shortened": "as §1"}, "[35]": {"target": "Neu5Ac(a2-3)Gal6S(b1-4)GlcNAc", "procedure,_shortened": "as §1"}, "[36]": {"target": "Neu5Ac(a2-3)Gal6S(b1-4)[Fuc(a1-3)]GlcNAc", "procedure,_shortened": "as §1"}, "Neu5Ac(a2-3)GalNAc": {"target": "Neu5Ac(a2-3)GalNAc", "procedure,_shortened": "as §1"}}, "note": "Some of the results follow."}
{"binder": "B1", "values": [{"measurement": "glycan array binding signal (z-score)", "setting": "[1]", "result": -0.527}, {"measurement": "glycan array binding signal (z-score)", "setting": "GlcNAc(b1-6)GalNAc", "result": 0.065}, {"measurement": "glycan array binding signal (z-score)", "setting": "Kdn(a2-3)Gal(b1-3)GlcNAc", "result": -0.308}, {"measurement": "glycan array binding signal (z-score)", "setting": "Kdn(a2-3)Gal(b1-4)GlcNAc", "result": 0.341}, {"measurement": "glycan array binding signal (z-score)", "setting": "[2]", "result": -0.221}, {"measurement": "glycan array binding signal (z-score)", "setting": "[3]", "result": 0.08}, {"measurement": "glycan array binding signal (z-score)", "setting": "[4]", "result": -0.533}, {"measurement": "glycan array binding signal (z-score)", "setting": "[5]", "result": 0.353}, {"measurement": "glycan array binding signal (z-score)", "setting": "Man(a1-2)Man(a1-3)Man", "result": 0.186}, {"measurement": "glycan array binding signal (z-score)", "setting": "[6]", "result": -0.233}, {"measurement": "glycan array binding signal (z-score)", "setting": "[7]", "result": -0.785}, {"measurement": "glycan array binding signal (z-score)", "setting": "[8]", "result": -0.137}, {"measurement": "glycan array binding signal (z-score)", "setting": "Man(a1-3)[Man(a1-6)]Man", "result": -0.171}, {"measurement": "glycan array binding signal (z-score)", "setting": "[9]", "result": 1.01}, {"measurement": "glycan array binding signal (z-score)", "setting": "[10]", "result": 0.53}, {"measurement": "glycan array binding signal (z-score)", "setting": "Man(b1-4)GlcNAc", "result": 1.06}, {"measurement": "glycan array binding signal (z-score)", "setting": "Neu5Ac(a2-3)Gal", "result": -0.334}, {"measurement": "glycan array binding signal (z-score)", "setting": "[11]", "result": -0.26}, {"measurement": "glycan array binding signal (z-score)", "setting": "[12]", "result": -0.523}, {"measurement": "glycan array binding signal (z-score)", "setting": "[13]", "result": -0.531}, {"measurement": "glycan array binding signal (z-score)", "setting": "[14]", "result": -0.456}, {"measurement": "glycan array binding signal (z-score)", "setting": "[15]", "result": -0.547}, {"measurement": "glycan array binding signal (z-score)", "setting": "[16]", "result": -1.04}, {"measurement": "glycan array binding signal (z-score)", "setting": "[17]", "result": -1.06}, {"measurement": "glycan array binding signal (z-score)", "setting": "[18]", "result": 2.45}, {"measurement": "glycan array binding signal (z-score)", "setting": "[19]", "result": -0.948}, {"measurement": "glycan array binding signal (z-score)", "setting": "[20]", "result": -0.678}, {"measurement": "glycan array binding signal (z-score)", "setting": "[21]", "result": -0.946}, {"measurement": "glycan array binding signal (z-score)", "setting": "[22]", "result": -0.808}, {"measurement": "glycan array binding signal (z-score)", "setting": "Neu5Ac(a2-3)Gal(b1-4)Glc", "result": -0.295}, {"measurement": "glycan array binding signal (z-score)", "setting": "[23]", "result": -0.36}, {"measurement": "glycan array binding signal (z-score)", "setting": "[24]", "result": -0.655}, {"measurement": "glycan array binding signal (z-score)", "setting": "[25]", "result": -0.088}, {"measurement": "glycan array binding signal (z-score)", "setting": "[26]", "result": -1.1}, {"measurement": "glycan array binding signal (z-score)", "setting": "[27]", "result": -0.514}, {"measurement": "glycan array binding signal (z-score)", "setting": "[28]", "result": -0.353}, {"measurement": "glycan array binding signal (z-score)", "setting": "[29]", "result": 0.304}, {"measurement": "glycan array binding signal (z-score)", "setting": "[30]", "result": -0.788}, {"measurement": "glycan array binding signal (z-score)", "setting": "[31]", "result": -0.664}, {"measurement": "glycan array binding signal (z-score)", "setting": "[32]", "result": 0.794}, {"measurement": "glycan array binding signal (z-score)", "setting": "[33]", "result": -0.204}, {"measurement": "glycan array binding signal (z-score)", "setting": "[34]", "result": -1.09}, {"measurement": "glycan array binding signal (z-score)", "setting": "[35]", "result": -0.852}, {"measurement": "glycan array binding signal (z-score)", "setting": "[36]", "result": -0.672}, {"measurement": "glycan array binding signal (z-score)", "setting": "Neu5Ac(a2-3)GalNAc", "result": 0.559}]}
